Experimental data: patent US8476434B2, “Protein kinase modulators and method of use” (Amgen Inc., priority 2004, dated 2013)
Some results were stated once for a whole list of compounds, not compound by compound.

Amino acid sequences for entries named in this document (tags omitted). Residues count along the entry.
UniProt Q02763, 23-1124: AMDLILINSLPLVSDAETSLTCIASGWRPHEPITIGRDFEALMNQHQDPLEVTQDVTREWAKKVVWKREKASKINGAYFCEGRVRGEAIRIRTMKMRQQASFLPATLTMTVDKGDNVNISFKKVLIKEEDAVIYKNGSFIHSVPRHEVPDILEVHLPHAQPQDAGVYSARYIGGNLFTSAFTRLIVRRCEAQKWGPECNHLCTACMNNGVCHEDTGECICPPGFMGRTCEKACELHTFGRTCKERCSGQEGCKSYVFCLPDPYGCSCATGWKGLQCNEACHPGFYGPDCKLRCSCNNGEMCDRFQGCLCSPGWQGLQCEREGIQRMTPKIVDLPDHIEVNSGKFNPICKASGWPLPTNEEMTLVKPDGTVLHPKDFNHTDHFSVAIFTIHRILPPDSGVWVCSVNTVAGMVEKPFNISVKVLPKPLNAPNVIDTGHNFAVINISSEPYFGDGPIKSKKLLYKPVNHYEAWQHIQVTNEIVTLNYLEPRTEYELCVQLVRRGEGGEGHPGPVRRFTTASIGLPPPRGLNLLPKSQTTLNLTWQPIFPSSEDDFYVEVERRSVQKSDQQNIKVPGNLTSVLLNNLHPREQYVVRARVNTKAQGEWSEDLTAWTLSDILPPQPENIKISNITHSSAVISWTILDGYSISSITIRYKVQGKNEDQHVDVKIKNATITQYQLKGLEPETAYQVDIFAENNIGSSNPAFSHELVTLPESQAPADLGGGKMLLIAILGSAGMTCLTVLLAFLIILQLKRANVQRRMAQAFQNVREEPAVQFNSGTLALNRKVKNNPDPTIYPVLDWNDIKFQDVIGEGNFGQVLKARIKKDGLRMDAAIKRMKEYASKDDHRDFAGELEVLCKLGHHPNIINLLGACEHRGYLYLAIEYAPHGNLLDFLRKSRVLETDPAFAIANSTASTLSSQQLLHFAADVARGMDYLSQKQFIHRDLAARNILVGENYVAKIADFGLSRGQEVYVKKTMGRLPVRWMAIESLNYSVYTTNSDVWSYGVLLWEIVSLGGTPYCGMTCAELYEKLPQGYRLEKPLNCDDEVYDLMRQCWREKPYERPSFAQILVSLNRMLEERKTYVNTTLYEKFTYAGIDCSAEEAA

What follows are molecules tested against Tie-2 kinase enzyme (Homo sapiens, UniProt Q02763) (assay: Tie-2 Homogenous Time Resolved Fluorescent (HTRF) kinase assay). Details: read-out: IC50's for the inhibition of Tie-2 as measured by the HTRF assay.
Assay type: biochemical

Q: With `CNc1nccc(-c2cccnc2Oc2ccc(Cl)c(NC(=O)c3cccc(OC(F)(F)C(F)F)c3)c2)n1` [Example 729, N-(2-chloro-5-((3-(2-(methylamino)-4-pyrimidinyl)-2-pyridinyl)oxy)phenyl)-3-((1,1,2,2-tetrafluoroethyl)oxy) benzamide] as the molecule, how does the IC50 read?
A: Its IC50 is < 5 µM.

Q: `CNc1nccc(-c2cccnc2Oc2cc(NC(=O)c3cc(OC)ccc3Br)ccc2C)n1` [Example 730, 2-bromo-N-(4-methyl-3-((3-(2-(methylamino)-4-pyrimidinyl)-2-pyridinyl)oxy)phenyl)-5-(methyloxy)benzamide] was tested. Which IC50 did it give?
A: The IC50 was < 5 µM.

Q: `CNc1ncnc(-c2cccnc2Oc2ccc(Cl)c(NC(=O)c3cccc(OC(F)(F)C(F)F)c3)c2)n1` [Example 731, N-(2-chloro-5-((3-(4-(methylamino)-1,3,5-triazin-2-yl)-2-pyridinyl)oxy)phenyl)-3-((1,1,2,2-tetrafluoroethyl)oxy) benzamide] was tested. Which IC50 did it give?
A: Its IC50 is < 5 µM.

Q: With `CNc1ncnc(-c2cccnc2Oc2ccc(Cl)c(NC(=O)c3cc(C(F)(F)F)ccc3Cl)c2)n1` [Example 732, 2-chloro-N-(2-chloro-5-((3-(4-(methylamino)-1,3,5-triazin-2-yl)-2-pyridinyl)oxy)phenyl)-5-(trifluoromethyl) benzamide] as the molecule, how does the IC50 read?
A: Its IC50 is < 5 µM.

Q: For `CNc1nccc(-c2cccnc2Oc2ccc(Cl)c(NC(=O)c3cccc(C(F)(F)F)c3)c2)n1` [Example 733, N-(2-chloro-5-((3-(2-(methylamino)-4-pyrimidinyl)-2-pyridinyl)oxy)phenyl)-3-(trifluoromethyl) benzamide], which IC50 is on record?
A: The IC50 was < 5 µM.

Q: For `CNc1ncnc(-c2cccnc2Oc2ccc(Cl)c(NC(=O)Nc3ccc(C(F)(F)F)cc3)c2)n1` [Example 734, N-(2-chloro-5-((3-(4-(methylamino)-1,3,5-triazin-2-yl)-2-pyridinyl)oxy)phenyl)-N′-(4-(trifluoromethyl)phenyl)urea], which IC50 is on record?
A: The IC50 was < 5 µM.

Q: Which IC50 does the source give for `CNc1nccc(-c2cccnc2Oc2ccc(Cl)c(NC(=O)c3cc(C(F)(F)F)ccc3Cl)c2)n1` [Example 735, 2-chloro-N-(2-chloro-5-((3-(2-(methylamino)-4-pyrimidinyl)-2-pyridinyl)oxy)phenyl)-5-(trifluoromethyl) benzamide] here?
A: The IC50 was < 5 µM.

Q: How did the IC50 turn out when `CNc1ncnc(-c2cccnc2Oc2cccc(NC(=O)c3cccc(-n4cccc4)c3)c2)n1` [Example 736, N-(3-((3-(4-(methylamino)-1,3,5-triazin-2-yl)-2-pyridinyl)oxy)phenyl) 3-(1H-pyrrol-1-yl)benzamide] was run?
A: The IC50 was < 5 µM.

Q: How did the IC50 turn out when `CNc1ncnc(-c2cccnc2Oc2cccc(NC(=O)c3cccc(C(F)(F)F)c3)c2)n1` [Example 737, N-(3-((3-(4-(methylamino)-1,3,5-triazin-2-yl)-2-pyridinyl)oxy)phenyl)-3-(trifluoromethyl) benzamide] was run?
A: The IC50 was < 5 µM.

Q: For `CNc1nccc(-c2cccnc2Oc2cc(NC(=O)c3cccc(OC(F)(F)C(F)F)c3)c(Cl)cc2Cl)n1` [Example 738, N-(2,4-dichloro-5-((3-(2-(methylamino)-4-pyrimidinyl)-2-pyridinyl)oxy)phenyl)-3-((1,1,2,2-tetrafluoroethyl)oxy) benzamide], which IC50 is on record?
A: Its IC50 is < 5 µM.

Q: With `CNc1nccc(-c2cccnc2Oc2ccc(Cl)c(NC(=O)c3cc(OC)ccc3Br)c2)n1` [Example 739, 2-bromo-N-(2-chloro-5-((3-(2-(methylamino)-4-pyrimidinyl)-2-pyridinyl)oxy)phenyl)-5-(methyloxy)benzamide] as the molecule, how does the IC50 read?
A: The IC50 was < 5 µM.

Q: How did the IC50 turn out when `CNc1ncnc(-c2cccnc2Oc2cccc(NC(=O)c3cc(C(C)(C)C)ccc3OC)c2)n1` [Example 740, 5-(1,1-dimethylethyl)-N-(3-((3-(4-(methylamino)-1,3,5-triazin-2-yl)-2-pyridinyl)oxy)phenyl)-2-(methyloxy)benzamide] was run?
A: The IC50 was < 5 µM.

Q: For `CNc1ncnc(-c2cccnc2Oc2cccc(NC(=O)c3cc(C(F)(F)F)ccc3F)c2)n1` [Example 741, 2-fluoro-N-(3-((3-(4-(methylamino)-1,3,5-triazin-2-yl)-2-pyridinyl)oxy)phenyl)-5-(trifluoromethyl)benz-amide], which IC50 is on record?
A: Its IC50 is < 5 µM.

Q: For `CNc1nccc(-c2cccnc2Oc2cccc(NC(=O)c3cccc(OC(F)(F)C(F)F)c3)c2C)n1` [Example 742, N-(2-methyl-3-((3-(2-(methylamino)-4-pyrimidinyl)-2-pyridinyl)oxy)phenyl)-3-((1,1,2,2-tetrafluoroethyl)oxy)benz-amide], which IC50 is on record?
A: The IC50 was < 5 µM.

Q: `CNc1cc(-c2cccnc2Oc2cc(NC(=O)c3cc(C(C)(C)C)ccc3OC)ccc2C)ccn1` [Example 745, 5-(1,1-dimethylethyl)-N-(4-methyl-3-((2′-(methylamino)-3,4′-bipyridin-2-yl)oxy)phenyl)-2-(methyloxy)benzamide] was tested. Which IC50 did it give?
A: The IC50 was < 5 µM.

Q: `CNc1nccc(-c2cccnc2Oc2cc(NC(=O)c3cc(C(F)(F)F)ccc3Cl)c(Cl)cc2Cl)n1` [Example 746, 2-chloro-N-(2,4-dichloro-5-((3-(2-(methylamino)-4-pyrimidinyl)-2-pyridinyl)oxy)phenyl)-5-(trifluoromethyl)benzamide] was tested. Which IC50 did it give?
A: The IC50 was < 5 µM.

Q: `CNc1ncnc(-c2cccnc2Oc2cc(NC(=O)Cc3ccc(C(F)(F)F)cc3)ccc2C)n1` [Example 747, N-(4-methyl-3-((3-(4-(methylamino)-1,3,5-triazin-2-yl)-2-pyridinyl)oxy)phenyl)-2-(4-(trifluoromethyl)phen-yl)acetamide] was tested. Which IC50 did it give?
A: Its IC50 is < 5 µM.

Q: `CNc1cc(-c2cccnc2Oc2cccc(NC(=O)c3cc(C(C)(C)C)ccc3OC)c2)ccn1` [Example 749, 5-(1,1-dimethylethyl)-N-(3-((2′-(methylamino)-3,4′-bipyridin-2-yl)oxy)phenyl)-2-(methyloxy)benzamide] was tested. Which IC50 did it give?
A: The IC50 was < 5 µM.

Q: `CNc1cc(-c2cccnc2Oc2cccc(NC(=O)c3cccc(OC(F)(F)C(F)F)c3)c2)ccn1` [Example 750, N-(3-((2′-(methylamino)-3,4′-bipyridin-2-yl)oxy)phenyl)-3-((1,1,2,2-tetrafluoroethyl)oxy)benz-amide] was tested. Which IC50 did it give?
A: The IC50 was < 5 µM.

Q: `CNc1nccc(-c2cccnc2Oc2cc(NC(=O)c3cc(Cl)cc(Cl)c3)ccc2C)n1` [Example 751, 3,5-dichloro-N-(4-methyl-3-((3-(2-(methylamino)-4-pyrimidinyl)-2-pyridinyl)oxy)phenyl)benz-amide] was tested. Which IC50 did it give?
A: Its IC50 is < 5 µM.

Q: For `CNc1nccc(-c2cccnc2Oc2cc(NC(=O)c3cc(C(C)(C)C)ccc3OC)cc(C(F)(F)F)c2)n1` [Example 752, 5-(1,1-dimethylethyl)-N-(3-((3-(2-(methylamino)-4-pyrimidinyl)-2-pyridinyl)oxy)-5-(trifluoromethyl)phenyl)-2-(methyloxy)benzamide], which IC50 is on record?
A: The IC50 was < 5 µM.

Q: For `CNc1nccc(-c2cccnc2Oc2cc(NC(=O)c3cccc(OC(F)(F)C(F)F)c3)cc(C(F)(F)F)c2)n1` [Example 753, N-(3-((3-(2-(methylamino)-4-pyrimidinyl)-2-pyridinyl)oxy)-5-(trifluoromethyl)phenyl)-3-((1,1,2,2-tetrafluoroethyl)oxy) benzamide], which IC50 is on record?
A: Its IC50 is < 5 µM.

Q: For `CNc1nccc(-c2cccnc2Oc2cc(NC(=O)c3cc(Cl)cc(Cl)c3)cc(C(F)(F)F)c2)n1` [Example 754, 3,5-dichloro-N-(3-((3-(2-(methylamino)-4-pyrimidinyl)-2-pyridinyl)oxy)-5-(trifluoromethyl)phenyl)benzamide], which IC50 is on record?
A: The IC50 was < 5 µM.

Q: How did the IC50 turn out when `CNc1nccc(-c2cccnc2Oc2cc(NC(=O)c3cccc(C(F)(F)F)c3)cc(C(F)(F)F)c2)n1` [Example 755, N-(3-((3-(2-(methylamino)-4-pyrimidinyl)-2-pyridinyl)oxy)-5-(trifluoromethyl)phenyl)-3-(trifluoromethyl)benzamide] was run?
A: The IC50 was < 5 µM.
